# Data reported in paper PMC12040169 (PLOS Biology, 2025).
# The other results are listed elsewhere or left out.
# System: T1, CTL2-GFP (C. trachomatis L2/434/Bu, GFP-expressing)
# T1 construct: L2/434/Bu, GFP-expressing
# Design: species or system HeLa; Intracellular C. trachomatis growth in HeLa cells, bulk GFP fluorescence relative to DMSO
# Details: bulk GFP, single well; 28.5 h, 10 µM; inhibitor
row,SMILES,% of control remaining [%]
1,Oc1ccc(-n2ncc(-c3cccc(C(F)(F)F)c3)n2)cc1 [CBK112677],67.5126
2,O=C(Nc1nc2c(s1)CCCCC2)C1CCN(S(=O)(=O)c2ccc(F)cc2)C1 (stereo not drawn) [CBK285708],89.9949
3,Cc1nc(C2CC(=O)N(Cc3ccccn3)C2)n(-c2ccccc2F)n1 (stereo not drawn) [CBK306895],139.721
4,FC(F)Oc1ccc(-c2ccnc(S)n2)cc1 [CBK288385],151.518
5,CC(=O)c1ccccc1NC(=O)c1cc2ccc(F)cc2nc1C [CBK297929],105.138
6,O=[N+]([O-])c1ccc(CN2CCC(Oc3nccnc3OCc3cccnc3)CC2)cc1 [CBK083162T],95.5778
7,Cn1cc(C(=O)Nc2c(F)cc(F)cc2OC2CCNCC2)c2ccccc21 [CBK050328T],107.276
8,Cc1ccccc1-c1cc(C(=O)NCCCn2cc(Br)cn2)c2ccccc2n1 [CBK267758],95.0924
9,CCC(C)(C)c1ccc(S(=O)(=O)N(C)CCC#N)cc1 [CBK043395],95.688
10,CC(NC(=O)N(CCCN)Cc1c[nH]c(-c2ccccc2)n1)c1cccc2ccccc12 (stereo not drawn) [CBK034672C],57.336
11,O=C(NCCN1CCOCC1)c1ccc(Nc2cncc(-c3ccc(O)cc3)n2)cc1 [CBK115692],132.361
12,COc1ncnc(C)c1-c1cc(C)c(OC)c(C)c1 [CBK306852],110.23
13,Cc1ccc(S(=O)(=O)Nc2cccc(NC(=O)c3ccco3)c2)cc1C(=O)O [CBK296638],135.682
14,COc1cc(C2=NS(=O)(=O)NC3=C2CCCC3)cc(OC)c1OC [CBK010423],144.557
15,COc1ccc(I)cc1S(=O)(=O)NCc1ccccn1 [CBK264019],125.306
16,CCn1cncc1CN1CCCC(c2cc3cccnc3[nH]2)C1 (stereo not drawn) [CBK284993],157.181
17,c1ccc(-c2nc3ccc(Oc4ccc5nc(-c6ccccn6)c(-c6ccccn6)nc5c4)cc3nc2-c2ccccn2)nc1 [CBK261964],124.231
18,CN(C)CCCC(O)(c1ccccc1)c1ccccc1 [CBK012599],71.3147
19,COc1cccc(CN2CCN(C(=O)C3(C)CC3(Cl)Cl)CC2)c1 (stereo not drawn) [CBK268121],107.417
20,Cc1cc(NC(=O)C(C)N(C)CCOc2ccccc2Cl)no1 (stereo not drawn) [CBK304466],94.5381

row,SMILES,% of control remaining [%]
1,CSc1ccccc1NC(=O)c1cccn(Cc2ccc(C)cc2)c1=O [CBK294426],159.557
2,O=C(CSC1=NC(=O)C(Cc2ccccc2)C(=O)N1)Nc1ncccn1 (stereo not drawn) [CBK263906],72.1456
3,NCCNC(=O)c1cc2cc(OC(F)(F)F)ccc2[nH]1 [CBK107368],132.79
4,COc1cccc(CN2CC[C@@H]3[C@H](C2)[C@@H](c2ccc(F)cc2)CN3C(=O)c2ccccc2)c1 [CBK286292],87.255
5,O=C(c1ccc2c(c1)CCO2)N1CCC(Sc2ccc(-c3ccccc3)cc2)CC1 [CBK131953],67.8546
6,CN1CCC(N2CC[C@@H]3[C@H]2C(=O)NC[C@H](CCC(=O)NCc2ccccc2)N3C)CC1 [CBK289026],87.5494
7,COc1ccc(Cl)cc1CN(C)C(=O)c1ccc(C)[nH]c1=O [CBK305794],168.021
8,Cc1cccc(CCNC(=O)N2CCC(Cc3cnn(C)c3)C2)c1 (stereo not drawn) [CBK305137],83.0185
9,Cc1noc(C)c1CC(=O)NCC(C)(C)N1CCCCC1 [CBK281863],106.133
10,CC[C@H]1CN(C(=O)c2cccnc2)CC[C@H]1CC(=O)NCc1cccs1 [CBK288773],107.289
11,O=[N+]([O-])c1ccc(Sc2ccccc2C2=NCCCN2)nc1 [CBK006747C],116.844
12,O=C(Nc1ccc(S(=O)(=O)N2CCCCC2)cc1)c1ccc(CN2CCOCC2)cc1 [CBK264002],88.9131
13,CN1CCC(N(C)S(=O)(=O)c2ccc(C(C)(C)C)cc2)C1 (stereo not drawn) [CBK059036T],110.618
14,CC(=O)NS(=O)(=O)c1ccc(NC(=O)/C=C/c2cccc([N+](=O)[O-])c2)cc1 [CBK300492],119.599
15,CS(=O)(=O)NCC1CCCN(C(=O)Nc2cccc(Cl)c2)C1 (stereo not drawn) [CBK305736],130.828
16,CC(CCc1ccc(O)cc1)NC1CCCC1 (stereo not drawn) [CBK033987],120.654
17,Cc1cc(C(=O)CN(C)S(=O)(=O)c2ccc(Cl)c(Cl)c2)c(C)n1C [CBK295661],109.26
18,COc1ccc(Oc2nccc(N3CCCN(Cc4ccc(C(F)(F)F)cc4)CC3)n2)cc1OC [CBK084152],76.9647
19,O=C(NCc1ccc(-c2csnn2)cc1)c1c(F)cccc1F [CBK149310],103.314

# In a second layout: entries from further up.
row	SMILES	% of control remaining [%]
9	Cc1noc(C)c1CC(=O)NCC(C)(C)N1CCCCC1 [CBK281863]	106.133
10	CC[C@H]1CN(C(=O)c2cccnc2)CC[C@H]1CC(=O)NCc1cccs1 [CBK288773]	107.289
